# Source: the supplement of paper PMC10727501
# The other results are listed elsewhere or left out. Single values are uncertain here, since repeats match poorly.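 Free-swimming zebrafish larvae were scored for O-bend response probability to dark flashes (naive: first five; training: remaining flashes of four 60-flash blocks; test: later 60-flash block) and for turning toward alternating leftward/rightward LED motion (OMR). Six treated larvae were compared with sixty 0.1% DMSO controls; |SSMD|≥2 defined a hit.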
# Columns and labels:
# Details in all cases: 10 µM; pre-incubation: 30-90 min
# [1] = test system: Danio rerio larvae (5 dpf, TLF); assay: OMR-Perf (SSMD vs DMSO vehicle); higher = higher than vehicle (e.g. higher dark-flash O-bend response probability, or better optomotor performance)
# [2] = test system: Danio rerio larvae (5 dpf, TLF); assay: Prob-Test (SSMD vs DMSO vehicle); higher = higher than vehicle (e.g. higher dark-flash O-bend response probability, or better optomotor performance)
# [3] = test system: Danio rerio larvae (5 dpf, TLF); assay: Prob-Naive (SSMD vs DMSO vehicle); higher = higher than vehicle (e.g. higher dark-flash O-bend response probability, or better optomotor performance)
# [4] = test system: Danio rerio larvae (5 dpf, TLF); assay: Prob-Train (SSMD vs DMSO vehicle); higher = higher than vehicle (e.g. higher dark-flash O-bend response probability, or better optomotor performance)
SMILES,OMR-Perf [1],Prob-Test [2],Prob-Naive [3],Prob-Train [4]
O=C1c2ccc(Nc3ccc(F)cc3F)cc2CCc2ccc(OC[C@H](O)CO)cc21 [Skepinone-L],-0.294,-1.09,-0.102,-0.383
Cn1ncnc1[C@H]1c2n[nH]c(=O)c3cc(F)cc(c23)N[C@@H]1c1ccc(F)cc1,-0.0189,-0.6,0.146,-0.0364
CCCCC1=NC2(CCCC2)C(=O)N1Cc1ccc(-c2ccccc2-c2nn[nH]n2)cc1 [Irbesartan],-0.312,0.173,0.126,0.0233
CS(=O)(=O)O.CS(=O)(=O)O.N=C(N)Nc1ccc(C(=O)Oc2ccc3cc(C(=N)N)ccc3c2)cc1 [Nafamostat Mesylate],0.194,0.0524,-0.414,-0.985
COc1ccc2c(c1)C(=O)N(CCc1ccc(S(=O)(=O)NC(=O)NC3CCCCC3)cc1)C(=O)C2(C)C [Gliquidone],-0.14,-0.369,-0.169,-1.04
CN(C)CCCN1c2ccccc2Sc2ccc(C(F)(F)F)cc21.Cl [Triflupromazine HCl],-0.623,-1.37,-0.392,-1.49
CCCCCOC(=O)Nc1nc(=O)n([C@@H]2O[C@H](C)[C@@H](O)[C@@H]2O)cc1F [Capecitabine],0.503,-0.405,-0.606,-0.433
CC(=O)Oc1ccccc1C(=O)O [Aspirin],0.0153,0.0487,0.464,0.281
Cl.O=C1Cc2cc(CCN3CCN(c4nsc5ccccc45)CC3)c(Cl)cc2N1 [Ziprasidone HCl],-0.67,-1.3,-0.0296,-1.67
Cl.O=C(Nc1ccccc1)OCC(CN1CCCCC1)OC(=O)Nc1ccccc1 (stereo unspecified) [Diperodon HCl],0.225,0.29,-0.00172,0.113
CNC(=O)CN1CCC(Oc2cc3c(Nc4cccc(Cl)c4F)ncnc3cc2OC)CC1 [AZD8931 (Sapitinib)],0.071,0.126,-0.476,0.479
Nc1ncnc2c1ncn2[C@@H]1O[C@@H](COP(=O)(O)OP(=O)([O-])OP(=O)([O-])O)[C@@H](O)[C@H]1O.[Na+].[Na+] [ATP (Adenosine-Triphosphate)],0.0258,-0.132,-0.142,0.0718
COC(=O)c1ccc2c(c1)nc(NC(=O)c1ccccc1)n2CCCc1ccccc1,-0.357,0.151,0.446,-0.531
c1cn2cc(-c3ccc4cn[nH]c4c3)nc(Nc3ccc(N4CCOCC4)cc3)c2n1,0.933,-0.225,-0.455,-0.15
CC(=O)Nc1nc(C)c(-c2ccc(Cl)c(S(=O)(=O)NCCO)c2)s1,0.15,-0.243,0.0951,0.00251
OC[C@H]1O[C@@H](Oc2ccc(O)cc2)[C@H](O)[C@@H](O)[C@@H]1O [Arbutin],-0.114,0.427,-0.0225,0.16
N#CCNC(=O)c1ccc(-c2ccnc(Nc3ccc(N4CCOCC4)cc3)n2)cc1,0.575,0.217,-0.234,-0.32
O=C1NC(=O)/C(=C/c2ccc(-c3ccc(F)cc3O)o2)S1,-0.386,-1.03,-0.901,-0.754
Cc1c(C(=O)Nc2ccc(N3CCC(N4CCOCC4)CC3)c(C#N)c2)cnn1-c1ccc(Cl)cc1,-0.749,-1.26,-0.0588,0.0601
Cc1cc(NS(=O)(=O)c2ccc(N)cc2)no1 [Sulfamethoxazole],-0.193,0.176,0,0.19
COc1ccc(COc2cc3oc(=O)c4cc(C(C)O)ccc4c3cc2OC)cc1 (stereo unspecified) [Palomid 529 (P529)],-0.594,0.28,-0.327,-0.35
COc1cccc(N(C)C(=S)Oc2ccc3c(c2)CCCC3)n1 [Liranaftate],-1,-1.61,-3.14,-2.65
CCC(=O)OCC(=O)[C@]1(OC(=O)CC)[C@@H](C)C[C@H]2[C@@H]3CCC4=CC(=O)C=C[C@]4(C)[C@]3(F)[C@H](O)C[C@@]21C [Betamethasone Dipropionate (Diprolene)],-0.0214,-0.231,-0.0588,-0.325
C=CC(=O)Nc1cccc(Oc2nc(Nc3ccc(N4CCN(C)CC4)cc3OC)ncc2Cl)c1,-0.439,-0.337,0.313,-0.473

# Sorted by formula weight (smallest number first): some entries from above
SMILES,OMR-Perf [1],Prob-Test [2],Prob-Naive [3],Prob-Train [4]
COc1cccc(N(C)C(=S)Oc2ccc3c(c2)CCCC3)n1 [Liranaftate],-1,-1.61,-3.14,-2.65
C=CC(=O)Nc1cccc(Oc2nc(Nc3ccc(N4CCN(C)CC4)cc3OC)ncc2Cl)c1,-0.439,-0.337,0.313,-0.473
CCC(=O)OCC(=O)[C@]1(OC(=O)CC)[C@@H](C)C[C@H]2[C@@H]3CCC4=CC(=O)C=C[C@]4(C)[C@]3(F)[C@H](O)C[C@@]21C [Betamethasone Dipropionate (Diprolene)],-0.0214,-0.231,-0.0588,-0.325
